For one substance, binding results are on record in publication PMC12656476.

Protein sequences, listed by entry. Tags and fused reporters are not part of them. Residues count along the entry.
UniProt P01556, residues 22-124: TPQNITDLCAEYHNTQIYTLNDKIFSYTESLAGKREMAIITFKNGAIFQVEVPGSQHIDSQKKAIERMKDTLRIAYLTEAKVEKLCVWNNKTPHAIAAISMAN

These are yes or no findings as the source states them, for the method shown. Some binding calls cover weakened binding; strength is not graded here.

For the test, the target named is CTB from V. cholerae (reference) (Vibrio cholerae) (UniProt P01556). Nature of the test: native gel or EMSA; both purified.

As for “CTB from V. cholerae (reference) (from UniProt P01556 22-124)”, the binding result is on record as “binds”.
